Reference: publication PMC8654841
Results are given in words; binding and its absence hold for the method and conditions named. Binding seen in cells or lysates may run through a third protein. Binding can be weak; no strength is given.

Biological target: T1, Tenascin-R (rat (endogenous in synaptosomes)) (UniProt Q05546)
T1 sequence: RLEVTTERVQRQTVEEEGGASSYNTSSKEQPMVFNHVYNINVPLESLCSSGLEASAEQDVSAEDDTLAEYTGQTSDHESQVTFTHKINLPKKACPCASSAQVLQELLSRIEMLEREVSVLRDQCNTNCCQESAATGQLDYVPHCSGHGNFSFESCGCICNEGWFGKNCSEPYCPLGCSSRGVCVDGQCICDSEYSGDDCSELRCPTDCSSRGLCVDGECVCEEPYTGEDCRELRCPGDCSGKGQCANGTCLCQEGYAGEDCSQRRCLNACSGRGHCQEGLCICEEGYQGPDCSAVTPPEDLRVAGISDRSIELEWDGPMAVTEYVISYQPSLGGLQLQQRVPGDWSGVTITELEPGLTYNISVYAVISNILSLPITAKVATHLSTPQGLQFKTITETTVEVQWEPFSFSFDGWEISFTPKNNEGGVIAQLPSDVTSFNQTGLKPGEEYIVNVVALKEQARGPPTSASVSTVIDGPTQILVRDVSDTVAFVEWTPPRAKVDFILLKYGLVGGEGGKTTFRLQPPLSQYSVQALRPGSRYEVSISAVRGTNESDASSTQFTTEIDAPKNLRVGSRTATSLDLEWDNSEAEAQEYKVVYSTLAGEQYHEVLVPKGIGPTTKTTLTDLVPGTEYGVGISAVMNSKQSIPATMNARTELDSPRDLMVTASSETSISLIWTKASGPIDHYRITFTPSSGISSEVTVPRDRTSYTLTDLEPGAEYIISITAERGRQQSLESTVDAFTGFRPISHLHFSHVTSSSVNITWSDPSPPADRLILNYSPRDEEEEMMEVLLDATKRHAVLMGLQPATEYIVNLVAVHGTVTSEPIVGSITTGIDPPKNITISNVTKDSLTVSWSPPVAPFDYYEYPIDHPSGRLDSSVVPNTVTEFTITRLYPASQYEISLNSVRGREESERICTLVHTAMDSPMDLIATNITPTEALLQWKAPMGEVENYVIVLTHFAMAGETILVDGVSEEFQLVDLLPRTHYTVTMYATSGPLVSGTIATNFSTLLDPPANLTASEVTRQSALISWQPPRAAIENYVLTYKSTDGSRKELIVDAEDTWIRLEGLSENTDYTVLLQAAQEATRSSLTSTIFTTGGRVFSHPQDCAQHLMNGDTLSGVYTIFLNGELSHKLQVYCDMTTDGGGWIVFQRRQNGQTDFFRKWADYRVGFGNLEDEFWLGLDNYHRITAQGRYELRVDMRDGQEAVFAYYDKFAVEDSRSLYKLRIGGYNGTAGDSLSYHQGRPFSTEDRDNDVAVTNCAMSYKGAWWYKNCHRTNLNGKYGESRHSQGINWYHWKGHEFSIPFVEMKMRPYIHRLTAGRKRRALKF
Assay: co-IP; rat brain synaptosomes incubated with anti-TNR antibody (1 h, 4 °C), permeabilized with 4% CHAPS, supernatant captured on Protein G Dynabeads, washed, eluted in SDS sample buffer; Western blot with anti-TNR and anti-Dynamin 1,2,3

binding: binds
Substance: dynamin (rat (endogenous in synaptosomes))
